Results published in patent US20230277125A1, “BREATH-BASED THERAPEUTIC DRUG MONITORING METHOD” (UNIVERSITÄTS-KINDERSPITAL BEIDER BASEL, priority 2020, published 2023).

Test: SESI-HRMS exhaled breath metabolite levels, side effects vs no side effects in patients on antiepileptic drugs
Type: in vivo, human
Settings: side effect dataset (yes vs no), training-set, average over listed m/z adducts

Compound | Average log2 FC
6-Amino-2-oxohexanoate | 0.662
O=C(O)C1=NCCC1 [1-Pyrroline-2-carboxylate] | 0.708
O=C(O)C1CCC=N1 (centres unmarked) [1-Pyrroline-5-carboxylate] | 0.708
CC(=O)NC(CCC=O)C(=O)O (centres unmarked) [2-Acetamido-5-oxopentanoate] | 0.788
N[C@@H](CCCC=O)C(=O)O [2-Aminoadipate 6-semialdehyde] | 0.662
C[N+](C)(C)CCCC(=O)[O-] [3-Dehydroxycarnitine] | 0.674
CC(=O)NCCCC(=O)O [4-Acetamidobutanoate] | 0.662
N=C(N)NCCCC(=O)O [4-Guanidinobutanoate] | 0.984
O=C(O)CCCO [4-Hydroxybutanoate] | 1.113
CC[C@H](N)C(=O)O [(S)-2-Aminobutanoate] | 0.955
CC(=O)O [Acetate] | −1.130
NC(=O)NCCC[C@H](N)C(=O)O [Citrulline] | 0.909
CN(CC(=O)O)C(=N)N [Creatine] | 0.438
N[C@H](CC(=O)O)C(=O)O [D-Aspartate] | 0.849
O=C(O)[C@H]1CCCN1 [D-Proline] | 0.915
NCC(=O)O [Glycine] | −0.061
O=CC(=O)O [Glyoxylate] | 0.236
N[C@@H](CCCC(=O)O)C(=O)O [L-2-Aminoadipate] | 0.562
N[C@@H](CC(O)C=O)C(=O)O (stereo partly drawn) [L-4-Hydroxyglutamate semialdehyde] | 0.503
NC(=O)C[C@H](N)C(=O)O [L-Asparagine] | 0.803
N[C@@H](CC(=O)O)C(=O)O [L-Aspartic acid] | 0.849
C[N+](C)(C)C[C@H](O)CC(=O)[O-] [L-Carnitine] | 0.574
N[C@@H](CCC(=O)O)C(=O)O [L-Glutamic acid] | 0.503
NC(=O)CC[C@H](N)C(=O)O [L-Glutamine] | 0.935

Compound | Average log2 FC
NCCCC[C@H](N)C(=O)O [L-Lysine] | 0.845
O=C(O)[C@@H]1CCCCN1 [L-Pipecolate] | 0.708
O=C(O)[C@@H]1CCCN1 [L-Proline] | 0.915
N[C@@H](C[C@@H](O)C(=O)O)C(=O)O [L-erythro-4-Hydroxyglutamate] | 1.004
CC(=O)NCCCNCCCCN [N1-Acetylspermidine] | 0.528
NCCC[C@H](NC(=O)CCC(=O)O)C(=O)O [N2-Succinyl-L-ornithine] | 0.532
CC(=O)NCCCC=O [N4-Acetylaminobutanal] | 0.708
C[N+](C)(C)CCCC[C@H](N)C(=O)O [N6,N6,N6-Trimethyl-L-lysine] | 0.722
CC(=O)NCCCCNCCCN [N8-Acetylspermidine] | 0.528
CC(=O)N[C@@H](CCC(=O)O)C(=O)O [N-Acetyl-L-glutamate] | 0.716
CC(=O)N[C@@H]1O[C@H](CO)[C@@H](O)[C@H](O)[C@H]1N [N-Acetyl-beta-D-glucosaminylamine] | 1.155
CC(=O)N[C@@H](CCCN)C(=O)O [N-Acetylornithine] | 1.348
CC(=O)NCCCCN [N-Acetylputrescine] | 0.704
CNCC(O)c1ccccc1 (centres unmarked) [N-Methylphenylethanolamine] | 0.572
CNCC(=O)O [Sarcosine] | 0.472
CC(=O)NCCC=O [acetamidopropanal] | 0.915
O=C(O)C1=NCCCC1 [delta1-Piperideine-2-carboxylate] | 0.579
O=C(O)[C@@H]1CCCC=N1 [delta1-Piperideine-6-L-carboxylate] | 0.579
O=CCCNCCCCNCCC=O [spermine dialdehyde] | 1.321
Procollagen 5-hydroxy-L-lysine | 1.133
Protein N6,N6-dimethyl-L-lysine | 0.948
spermidine monoaldehyde 1 | 0.953
spermidine monoaldehyde 2 | 0.953
